Measurements reported in PubChem BioAssay AID1259308 (NCATS, 2017)
Shown is an unselected part of about 59,000 reagents. Of all reagents, about 1,510 (2.6%) were called active. 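Calls use total luciferase alone and ignore viability, so some active siRNAs may act by altering cell number.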 Unmarked entries are inactive. Reagents against one gene are numbered here. No sequences are given here.

Test: 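Knock-downs that increase output of a recombinant reporter protein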 (primary screen)
Cells: human HEK293 embryonic kidney cells stably expressing firefly luciferase (HEK-CMV-Luc2-Hygro)
Reagents: single siRNA against human genes, 0.8 pmol siRNA per well
Duration: 72 h
Read-out: 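Luciferase light (ONE-Glo) measured on one replicate plate set and viability (CellTiter-Glo) on the other, scaled to a negative control siRNA, with robust z-scores and luciferase per cell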
Direction: total luciferase, z-score and total luciferase, % of control: higher = more reporter protein produced; luciferase per cell, z-score: higher = more reporter output per viable cell; viable cells, % of control: higher = more viable cells
Call rule: 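An siRNA counts as active if its total luciferase robust z-score exceeds 3; genes with two or more such siRNAs out of three were retested with fresh siRNAs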
Calls: active = raised luciferase; inactive = no rise

| target gene | reagent no. | total luciferase, z-score | total luciferase, % of control | luciferase per cell, z-score | viable cells, % of control |
| --- | --- | --- | --- | --- | --- |
| UTP3 | 1 | -1.91 | 43.9 | -2.02 | 83.7 |
| UTP3 | 2 | 1.61 | 114 | 2.47 | 66.5 |
| UTP3 | 3 | -1.16 | 58.8 | -1.2 | 90 |
| RBM42 | 1 | 0.304 | 87.9 | -0.367 | 108 |
| RBM42 | 2 | 2.91 | 140 | 2.59 | 79 |
| RBM42 | 3 | 0.545 | 92.7 | 0.246 | 97.1 |
| FBF1 | 1 | -0.296 | 76 | 0.306 | 78.3 |
| FBF1 | 2 | -0.126 | 79.4 | -0.227 | 94.2 |
| FBF1 | 3 | 2.21 | 126 | 1.96 | 84 |
| PSORS1C2 | 1 | 0.196 | 85.8 | 1.28 | 68.4 |
| PSORS1C2 | 2 | 0.0373 | 82.6 | 0.387 | 83.4 |
| PSORS1C2 | 3 | -0.395 | 74 | 0.921 | 64.9 |
| BRD4 | 1 | 3.24 (active) | 146 | 2.14 | 93.2 |
| BRD4 | 2 | -0.642 | 69.1 | -0.659 | 91.9 |
| BRD4 | 3 | 1.01 | 102 | 1.29 | 81.1 |
| PAM | 1 | -0.591 | 70.1 | -0.316 | 85.2 |
| PAM | 2 | -0.892 | 64.1 | -2.26 | 130 |
| PAM | 3 | 0.411 | 90.1 | 0.371 | 91.3 |
| CLEC14A | 1 | -0.00449 | 81.8 | 1.1 | 68.4 |
| CLEC14A | 2 | -0.571 | 70.5 | -0.376 | 87 |
| CLEC14A | 3 | -0.469 | 72.6 | -0.802 | 100 |

Next part; the last 2 above are carried over.
| target gene | reagent no. | total luciferase, z-score | total luciferase, % of control | luciferase per cell, z-score | viable cells, % of control |
| --- | --- | --- | --- | --- | --- |
| CLEC14A | 2 | -0.571 | 70.5 | -0.376 | 87 |
| CLEC14A | 3 | -0.469 | 72.6 | -0.802 | 100 |
| COXFA4 | 1 | 0.0615 | 83.1 | -0.305 | 101 |
| COXFA4 | 2 | -0.877 | 64.4 | -1.18 | 98.2 |
| COXFA4 | 3 | 0.49 | 91.6 | 0.0681 | 101 |
| ZBTB41 | 1 | 0.518 | 92.2 | -0.0947 | 106 |
| ZBTB41 | 2 | 3.47 (active) | 151 | 2.57 | 85.8 |
| ZBTB41 | 3 | 3.06 (active) | 143 | 2.47 | 83.4 |
| EMP1 | 1 | -1.03 | 61.4 | -0.743 | 83.5 |
| EMP1 | 2 | 0.603 | 93.9 | 0.417 | 94 |
| EMP1 | 3 | -0.56 | 70.8 | -0.301 | 85.6 |
| PTPN21 | 1 | -0.174 | 78.4 | 0.00218 | 87.6 |
| PTPN21 | 2 | -1.55 | 51 | -1.3 | 80.4 |
| PTPN21 | 3 | -1.41 | 53.9 | -2.49 | 116 |
| ZFP1 | 1 | -0.169 | 78.5 | 0.0383 | 86.9 |
| ZFP1 | 2 | -1.33 | 55.5 | -1.72 | 97.5 |
| ZFP1 | 3 | -0.274 | 76.4 | -1 | 111 |
| BTN2A2 | 1 | 1.4 | 110 | 1.89 | 74.7 |
| BTN2A2 | 2 | 0.39 | 89.6 | 0.445 | 89.1 |
| BTN2A2 | 3 | -0.525 | 71.5 | -1.07 | 106 |
| OCLM (retired record) | 1 | 0.429 | 90.4 | -0.209 | 107 |
| OCLM (retired record) | 2 | 0.709 | 96 | 0.503 | 94 |
| OCLM (retired record) | 3 | -1.76 | 47 | -2.04 | 89.8 |
| PIGU | 1 | 2.3 | 128 | 1.65 | 92.2 |
| PIGU | 2 | 0.609 | 94 | 0.521 | 91.6 |
| PIGU | 3 | -0.622 | 69.5 | -1.33 | 110 |
| ZNF572 | 1 | -0.0885 | 80.1 | -0.0124 | 89.8 |
| ZNF572 | 2 | 0.0079 | 82 | -0.0248 | 92.3 |
| ZNF572 | 3 | -0.208 | 77.8 | -0.106 | 89.3 |
| KDM6B | 1 | 0.728 | 96.4 | 1.13 | 80 |
| KDM6B | 2 | 2.76 | 137 | 1.91 | 92.4 |
| KDM6B | 3 | -1.08 | 60.3 | -0.676 | 80.6 |
| NSD2 | 1 | -0.286 | 76.2 | 0.0333 | 84.4 |
| NSD2 | 2 | 1.39 | 109 | 0.831 | 98.3 |
| NSD2 | 3 | -0.743 | 67.1 | 0.632 | 63.5 |
| CFHR4 | 1 | -0.394 | 74.1 | -0.144 | 86 |
| CFHR4 | 2 | -0.467 | 72.6 | -0.506 | 92.7 |
| CFHR4 | 3 | 0.885 | 99.5 | 0.77 | 90.8 |
